Assay results published in patent publication US9492497B2, “Peptides for the treatment of cancer” (ÖSTERREICHISCHE AKADEMIE DER WISSENSCHAFTEN, priority 2013, dated 2016).
Part of at least one peptide drawing is inferred or uncertain, most often the ends. Marks after values point to notes of the source that are not given here. Some of these results come from one statement about several compounds together. No end group written: not given here.

Tests used:
[1] = tested on: tumor over non tumor cells; assay: Specificity for tumor over non tumor cells (PI uptake studies); assay type: cell-based, human
Source text: (§1) Epidermis was separated. […] The pellet was resuspended in melanocyte growth media (Biomedica). […] All cell cultures were periodically checked for mycoplasma.

[2] = tested on: normal human dermal fibroblasts (NHDF); assay: PI-uptake assay, NHDF; assay type: cell-based; conditions: 20 μM peptide, up to 8 h
Source text: as §1

[3] = tested on: cancer cells (SBcl-2, WM164, TE671); assay: PI-uptake assay, cancer cells pooled; assay type: cell-based; conditions: 20 μM peptide, up to 8 h
Source text: as §1

[4] = tested on: human red blood cells; conditions: from Zweytick et al., J. Biol. Chem. 286 (2011); cited from earlier work
[5] = tested on: melanoma cell line SBcl-2; assay: PI-uptake assay, SBcl-2; assay type: cell-based, human; conditions: 80 μM peptide, 8 h
Experimental: as §1
Cells were incubated in media containing serum for 8 h in the presence of peptides. Peptide concentrations were varied from 10 to 80 μM.

## FWQRRIRRWRR-NH2 [PEP-318, FWQRRIRRWRR-NH2]
[1]
  activity and selectivity for cancer cells (in words): non-active
[2]
  killing of NHDF: ≤ 30%
[3]
  cytotoxic activity against cancer cells (killing): < 30%

## PFWRIRIRR-NH2 [PEP-322, PFWRIRIRR-NH2]
[4]
  hemolysis IC50: >500^b μg/ml
[5]
  killing of SBcl-2: less than 5%
[3]
  cytotoxic activity against cancer cells (killing): < 30%
